Measurements published in PMC6317822, “RSM1, an Arabidopsis MYB protein, interacts with HY5/HYH to modulate seed germination and seedling development in response to abscisic acid and salinity” (PLoS Genetics, 2018).
These are yes or no findings as the source states them, for the method shown. For some assays here: Binding seen in cells or lysates may run through a third protein. Some entries that bind do so weakly or less than the wild type. Sequences can lack the tags named with a protein.

T1: GST-HYH (HY5 HOMOLOG) (Arabidopsis) (UniProt Q8W191)
T1 sequence: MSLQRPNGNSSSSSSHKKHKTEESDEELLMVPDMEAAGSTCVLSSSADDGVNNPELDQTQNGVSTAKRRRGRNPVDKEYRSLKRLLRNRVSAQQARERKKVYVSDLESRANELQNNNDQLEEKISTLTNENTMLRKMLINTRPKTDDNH

T2: YFP^C-HY5 (Arabidopsis) (UniProt O24646)
T2 sequence: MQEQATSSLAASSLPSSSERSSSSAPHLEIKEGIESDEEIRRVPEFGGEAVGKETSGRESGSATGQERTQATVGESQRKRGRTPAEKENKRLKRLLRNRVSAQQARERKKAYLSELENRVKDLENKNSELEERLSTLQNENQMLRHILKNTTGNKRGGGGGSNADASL

T3: YFP^C-HYH (Arabidopsis) (UniProt Q8W191)
T3 sequence: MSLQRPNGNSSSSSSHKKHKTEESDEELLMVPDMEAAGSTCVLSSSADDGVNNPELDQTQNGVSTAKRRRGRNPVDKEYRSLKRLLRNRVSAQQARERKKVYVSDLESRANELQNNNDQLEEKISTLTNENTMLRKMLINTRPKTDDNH


What was measured:
[1] = molecular target: T1, GST-HYH (HY5 HOMOLOG) (Arabidopsis); test: pull-down; 2 ug GST or GST fusion protein mixed with 2 ug His-RSM1 in 500 uL GST binding buffer (50 mM Tris-HCl pH 7.5, 100 mM NaCl, 0.1% Nonidet P-40), Glutathione Sepharose 4B beads, 4 C, 2 h; four washes; immunoblot with anti-GST or anti-His; both purified
YFP^C-HY5 (Arabidopsis) [2] = molecular target: T2, YFP^C-HY5 (Arabidopsis); test: split reporter; BiFC; YFP^N and YFP^C fusions transiently co-transformed into Arabidopsis mesophyll protoplasts; overnight in the dark; confocal microscopy
YFP^C-HYH (Arabidopsis) [3] = molecular target: T3, YFP^C-HYH (Arabidopsis); test: as above
YFP^C-HY5 (Arabidopsis) [4] = molecular target: T2, YFP^C-HY5 (Arabidopsis); test: split reporter; BiFC; YFP^N and YFP^C fusions co-transformed into onion epidermal cells by particle bombardment; overnight in the dark; confocal microscopy, DAPI for nuclei
YFP^C-HYH (Arabidopsis) [5] = molecular target: T3, YFP^C-HYH (Arabidopsis); test: as above

| Binder | binding [1] | binding (YFP^C-HY5 (Arabidopsis) [2]) | binding (YFP^C-HYH (Arabidopsis) [3]) | binding (YFP^C-HY5 (Arabidopsis) [4]) | binding (YFP^C-HYH (Arabidopsis) [5]) |
| --- | --- | --- | --- | --- | --- |
| His-RSM1 (RADIALIS-LIKE SANT/MYB 1) (natural protein, Arabidopsis, UniProt Q9SIJ5 1-101, looked up, the CDS of RSM1 cloned into the BamHI and SacI sites of pET28a; also called MEE3; MATERNAL EFFECT EMBRYO ARREST 3; source: E. coli BL21 (pET28a-RSM1, 1 mM IPTG), purified with Ni-NTA beads) MASGSMSSYGSGSWTVKQNKAFERALAVYDQDTPDRWHNVARAVGGKTPEEAKRQYDLLVRDIESIENGHVPFPDYKTTTGNSNRGRLRDEEKRMRSMKLQ | binds |  |  |  |  |
| YFP^N-RSM1 (protein, UniProt Q9SIJ5 1-101) MASGSMSSYGSGSWTVKQNKAFERALAVYDQDTPDRWHNVARAVGGKTPEEAKRQYDLLVRDIESIENGHVPFPDYKTTTGNSNRGRLRDEEKRMRSMKLQ |  | binds | binds | binds | binds |
